PubChem BioAssay AID504793 – Drosophila RNAi Screening Center – 2011
The deposit covers about 23,000 reagents; this is a random part of those that have a named target and a result. Of all reagents, 62 (0.27%) are marked active. 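Calls come from follow-up tests whose scores are not deposited, so confirmed genes may have low counts here; counts are not normalised per plate.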 Raw values vary from plate to plate and are shown uncorrected. The numbers tell different reagents against one gene apart. A plus sign joins genes that one reagent is predicted to hit.

- Screen: 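Whole-genome screen for parts of the DNA damage checkpoint at G2/M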 (primary screen)
- System: Drosophila S2R+ cells
- Reagents: long dsRNA against Drosophila genes, about 0.25 µg dsRNA per well
- Timing: 4 days of dsRNA, then 4 hours of drug before read-out
- Challenge: doxorubicin 0.5 µM for 4 hours to cause double-strand breaks, in cells also given a low, harmless dose of dsRNA against nbs to sensitise the assay
- Measured: 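Mitotic index as the number of phospho-histone H3-positive cells in each well following doxorubicin, given as raw counts without normalisation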
- Reading the numbers: mitotic cells: higher = more cells in mitosis, weaker G2 arrest
- Call rule: 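Genes are called active only when high mitotic counts were reproduced with independent dsRNAs and mitosis was checked for delay without damage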
- Calls: active = confirmed in follow-up tests; inactive = not confirmed

no.	target gene	reagent no.	mitotic cells, replicate 1	mitotic cells, replicate 2	Call
1	CG31637	1	12		inactive
2	CG31637	2	6		inactive
3	CG31637	3	8		inactive
4	Ccp84Ag	1	6		inactive
5	Ccp84Ag	2	7		inactive
6	Ccp84Ag	3	2		inactive
7	CG8043	1	3		inactive
8	CG17105	1	6		inactive
9	CG17105	2	8		inactive
10	stum (stumble)	1	7		inactive
11	stum (stumble)	2	7		inactive
12	s-cup (stanley-cup)	1	3		inactive
13	s-cup (stanley-cup)	2	8		inactive
14	s-cup (stanley-cup)	3	2		inactive
15	CG9624	1	5		inactive
16	a10 (antennal protein 10)	1	5		inactive
17	cag	1	3		inactive
18	cag	2	6		inactive
19	Grl43a (Gustatory receptor-like 43a)	1	3		inactive
20	Elba3 (Early boundary activity 3)	1	3		inactive
21	CG8312	1	6		inactive
22	CG7079	1	8		inactive
23	CG7079	2	4		inactive
24	CG33007 (retired record)	1	12		inactive
25	CG33007 (retired record)	2	6		inactive
26	CG14455	1	5		inactive
27	CG14455	2	14		inactive
28	thoc6	1	2		inactive
29	Obp58d (Odorant-binding protein 58d)	1	8		inactive
30	CG18508	1	13		inactive
31	CG18508	2	13		inactive
32	TM4SF (Transmembrane 4 superfamily)	1	6		inactive

The list goes on; the last 7 above are carried over.
no.	target gene	reagent no.	mitotic cells, replicate 1	mitotic cells, replicate 2	Call
26	CG14455	1	5		inactive
27	CG14455	2	14		inactive
28	thoc6	1	2		inactive
29	Obp58d (Odorant-binding protein 58d)	1	8		inactive
30	CG18508	1	13		inactive
31	CG18508	2	13		inactive
32	TM4SF (Transmembrane 4 superfamily)	1	6		inactive
33	N (Notch)	1	9		inactive
34	CG8272	1	5		inactive
35	CG7120	1	10		inactive
36	Prp39 (pre-mRNA processing factor 39)	1	6		inactive
37	Prp39 (pre-mRNA processing factor 39)	2	3		inactive
38	LysB (Lysozyme B)	1	4		inactive
39	CG18765	1	6		inactive
40	pps (protein partner of snf)	1	9		inactive
41	pps (protein partner of snf)	2	24		inactive
42	pps (protein partner of snf)	3	30		inactive
43	Ttc7 (Tetratricopeptide repeat domain 7)	1	3		inactive
44	Hpr1	1	6		inactive
45	Snap25 (Synaptosomal-associated protein 25kDa)	1	3		inactive
46	Snap25 (Synaptosomal-associated protein 25kDa)	2	14	11	inactive
47	Gyc89Db (Guanylyl cyclase at 89Db)	1	6		inactive
48	Secp43 (tRNA Selenocysteine associated protein)	1	7		inactive
49	Secp43 (tRNA Selenocysteine associated protein)	2	10		inactive
50	CG1812	1	4		inactive
51	CG1812	2	7		inactive
52	APC7 (Anaphase Promoting Complex subunit 7)	1	5		inactive
53	APC7 (Anaphase Promoting Complex subunit 7)	2	6		inactive
54	CG9270	1	3		inactive
55	CG13364	1	10		inactive
56	CG13364	2	4		inactive
57	CG13364	3	3		inactive
58	Spn38F (Serpin 38F)	1	7		inactive
59	Spn38F (Serpin 38F)	2	10		inactive
60	Pld (Phospholipase D)	1	7		inactive
61	Pld (Phospholipase D)	2	5		inactive
62	ZnT49B (Zinc transporter 49B)	1	3		inactive
63	CG3021	1	18		inactive
64	CG3021	2	10		inactive
65	Blos2	1	3		inactive
66	Blos2	2	8		inactive
67	Dtwd2 + Obp84a	1	7		inactive
68	Dtwd2 + Obp84a	2	1		inactive
69	CG13855	1	3		inactive
70	CG13855	2	7		inactive
71	bin (biniou)	1	6		inactive
72	bin (biniou)	2	6		inactive
73	Cyp4e3 (Cytochrome P450 4e3)	1	6		inactive
74	Cyp4e3 (Cytochrome P450 4e3)	2	9		inactive
75	RpS19b (Ribosomal protein S19b)	1	11		inactive
